PubChem BioAssay AID1224830, NIAID | 2016
Shown is one part, drawn at random, of about 18,000 deposited reagents. In the full data, about 2,900 (16%) got an active call. 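Calls are made per well; low scores hint the gene aids the LPS response, high scores that it dampens it.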 A number with no mark means an inactive call. Repeated entries: four replicate wells of each siRNA pool.

Aim: 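Regulators of TLR4 signalling towards TNF-alpha in macrophage-like cells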 (primary screen)
System: human THP-1 monocytic leukaemia cells, TNF dual-luciferase reporter clone, PMA-differentiated to macrophage-like cells
Reagents: siRNA pool against human genes, 50 nM
Timing: LPS for 4 h, given about 3 days after siRNA transfection
Conditions: bacterial LPS (TLR4 ligand), 10 ng/ml
Detection: 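Ratio of firefly to renilla light, scaled to the plate median and expressed as a robust z-score per replicate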
Scale: TNF reporter robust z-score: higher = stronger TNF reporter response to LPS
Call rule: 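Each well counts as active if its z-score is over 2.8 or under -1.5; controls are left without a call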

| gene symbol | TNF reporter robust z-score |
| --- | --- |
| UNC119B (GeneID 84747) | -1.47 |
| UNC119B (GeneID 84747) | -1.24 |
| UNC119B (GeneID 84747) | -0.5 |
| UNC119B (GeneID 84747) | -1.43 |
| SDC3 (GeneID 9672) | -1.11 |
| SDC3 (GeneID 9672) | -0.68 |
| SDC3 (GeneID 9672) | 0.48 |
| SDC3 (GeneID 9672) | -0.21 |
| OR11H1 (GeneID 81061) | -0.33 |
| OR11H1 (GeneID 81061) | -0.58 |
| OR11H1 (GeneID 81061) | -0.98 |
| OR11H1 (GeneID 81061) | -0.35 |
| IRS4 (GeneID 8471) | -0.53 |
| IRS4 (GeneID 8471) | 0.3 |
| IRS4 (GeneID 8471) | 0.09 |
| IRS4 (GeneID 8471) | -0.14 |
| STK36 (GeneID 27148) | 0.34 |
| STK36 (GeneID 27148) | 2 |
| STK36 (GeneID 27148) | 1.11 |
| STK36 (GeneID 27148) | 0.91 |
| DNMBP (GeneID 23268) | -0.27 |
| DNMBP (GeneID 23268) | -0.66 |
| DNMBP (GeneID 23268) | -0.69 |
| DNMBP (GeneID 23268) | -0.06 |
| GYPE (GeneID 2996) | 1.31 |
| GYPE (GeneID 2996) | -0.55 |
| GYPE (GeneID 2996) | 0.2 |
| GYPE (GeneID 2996) | 0.61 |
| TRIM35 (GeneID 23087) | -0.63 |
| TRIM35 (GeneID 23087) | -0.79 |
| TRIM35 (GeneID 23087) | -2.32 (active) |
| TRIM35 (GeneID 23087) | -1.53 (active) |
| DNAH3 (GeneID 55567) | 0.02 |
| DNAH3 (GeneID 55567) | 0.34 |
| DNAH3 (GeneID 55567) | 1.16 |
| DNAH3 (GeneID 55567) | 0.88 |
| LTBP4 (GeneID 8425) | -0.77 |
| LTBP4 (GeneID 8425) | -0.28 |
| LTBP4 (GeneID 8425) | -0.2 |
| LTBP4 (GeneID 8425) | 0.29 |
| RYR2 (GeneID 6262) | -0.12 |
| RYR2 (GeneID 6262) | -0.68 |
| RYR2 (GeneID 6262) | -0.4 |
| RYR2 (GeneID 6262) | 0.3 |
| ACLY (GeneID 47) | -0.4 |
| ACLY (GeneID 47) | -0.71 |
| ACLY (GeneID 47) | -0.66 |
| ACLY (GeneID 47) | -0.93 |
| CEP15 (GeneID 57415) | 0.88 |
| CEP15 (GeneID 57415) | 1.19 |
| CEP15 (GeneID 57415) | 0.35 |
| CEP15 (GeneID 57415) | -0.19 |
| LRFN3 (GeneID 79414) | -0.72 |
| LRFN3 (GeneID 79414) | -0.87 |
| LRFN3 (GeneID 79414) | -0.82 |
| LRFN3 (GeneID 79414) | -0.43 |
| DYNC1LI2 (GeneID 1783) | -0.47 |
| DYNC1LI2 (GeneID 1783) | 0.37 |
| DYNC1LI2 (GeneID 1783) | -0.39 |
| DYNC1LI2 (GeneID 1783) | 0.12 |
| TAF7L (GeneID 54457) | 0 |
| TAF7L (GeneID 54457) | 0.32 |
| TAF7L (GeneID 54457) | -0.47 |
| TAF7L (GeneID 54457) | -0.23 |
| SLC16A8 (GeneID 23539) | -1.22 |
| SLC16A8 (GeneID 23539) | -1.09 |
| SLC16A8 (GeneID 23539) | -0.7 |
| IL36B (GeneID 27177) | -1.31 |
| IL36B (GeneID 27177) | -1.49 |
| IL36B (GeneID 27177) | -0.44 |
| IL36B (GeneID 27177) | -0.04 |
| MERTK (GeneID 10461) | 1.21 |
| MERTK (GeneID 10461) | 0.14 |
| MERTK (GeneID 10461) | -0.27 |
| MERTK (GeneID 10461) | 0.5 |
| OR2B11 (GeneID 127623) | 0.29 |
| OR2B11 (GeneID 127623) | 0.74 |
| OR2B11 (GeneID 127623) | -0.08 |
| OR2B11 (GeneID 127623) | 0.69 |
| FZR1 (GeneID 51343) | -0.25 |
| FZR1 (GeneID 51343) | 0.49 |
| FZR1 (GeneID 51343) | 0.87 |
| FZR1 (GeneID 51343) | 2.59 |
| MAPK8IP1 (GeneID 9479) | -0.53 |
| MAPK8IP1 (GeneID 9479) | -0.55 |
| MAPK8IP1 (GeneID 9479) | -0.66 |
| MAPK8IP1 (GeneID 9479) | 0.46 |
| EDEM2 (GeneID 55741) | -0.57 |
| EDEM2 (GeneID 55741) | -0.76 |
| EDEM2 (GeneID 55741) | -0.73 |
| EDEM2 (GeneID 55741) | -0.19 |
| MATCAP1 (GeneID 653319) | -0.3 |
| MATCAP1 (GeneID 653319) | -0.27 |
| MATCAP1 (GeneID 653319) | 0.17 |
| MATCAP1 (GeneID 653319) | 2.67 |
| DDX10 (GeneID 1662) | -0.77 |
| DDX10 (GeneID 1662) | -0.81 |
| DDX10 (GeneID 1662) | -0.71 |
| DDX10 (GeneID 1662) | -1.24 |
| PRKRIP1 (GeneID 79706) | -0.66 |
| PRKRIP1 (GeneID 79706) | 0.53 |
| PRKRIP1 (GeneID 79706) | -0.34 |
| PRKRIP1 (GeneID 79706) | 0.69 |
| RAD51 (GeneID 5888) | -1.49 |
| RAD51 (GeneID 5888) | -1.69 (active) |
| RAD51 (GeneID 5888) | -1.48 |
| RAD51 (GeneID 5888) | -0.95 |
| KCNIP2 (GeneID 30819) | 0.02 |
| KCNIP2 (GeneID 30819) | -0.65 |
| KCNIP2 (GeneID 30819) | 0.2 |
| KCNIP2 (GeneID 30819) | 0.85 |

Part of the list above, reformatted:
gene symbol | TNF reporter robust z-score
IL36B (GeneID 27177) | -0.04
MERTK (GeneID 10461) | 1.21
MERTK (GeneID 10461) | 0.14
MERTK (GeneID 10461) | -0.27
MERTK (GeneID 10461) | 0.5
OR2B11 (GeneID 127623) | 0.29
OR2B11 (GeneID 127623) | 0.74
OR2B11 (GeneID 127623) | -0.08
OR2B11 (GeneID 127623) | 0.69
FZR1 (GeneID 51343) | -0.25
FZR1 (GeneID 51343) | 0.49
